PubChem BioAssay AID686943, Drosophila RNAi Screening Center – 2013
In all, the deposit lists about 23,000 reagents; shown is a random part of those with a known target gene and a result. 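Extra replicates exist only for a retested subset of genes; insulin dose and duration not given; both raised and lowered dpERK matter.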 Not all columns of the deposit are shown. The record does not give: the amount of reagent, the time to read-out.

- Screen: 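Knockdowns that increase or decrease active ERK after insulin receptor stimulation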 (primary screen)
- System: Drosophila S2R+ haemocyte-like cells expressing YFP-tagged ERK (Rolled)
- Reagents: long dsRNA against Drosophila genes
- Treatment: insulin stimulation versus unstimulated cells; dose and duration not given
- Measured: 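Antibody staining for doubly phosphorylated ERK divided by ERK-YFP signal, as plate z-scores, in insulin-treated and untreated cells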
- Direction: replicate 1, z-score of dpERK with insulin and replicate 2, z-score of dpERK with insulin: higher = more active ERK per ERK-YFP after insulin

CG13047 [DRSC09928]
- replicate 1, z-score of dpERK with insulin: 0.33
- replicate 2, z-score of dpERK with insulin: 0.15

Smr [DRSC19495]
- replicate 1, z-score of dpERK with insulin: -5.69
- replicate 2, z-score of dpERK with insulin: -4.76

Smr [DRSC20288]
- replicate 1, z-score of dpERK with insulin: -4.24
- replicate 2, z-score of dpERK with insulin: -1.98

CG9150 [DRSC03148]
- replicate 1, z-score of dpERK with insulin: 0.46
- replicate 2, z-score of dpERK with insulin: 1.08

CG8187 [DRSC07099]
- replicate 1, z-score of dpERK with insulin: 1.24
- replicate 2, z-score of dpERK with insulin: 1.17

mldr [DRSC18100]
- replicate 1, z-score of dpERK with insulin: 0.91
- replicate 2, z-score of dpERK with insulin: 0.52

hbt [DRSC01310]
- replicate 1, z-score of dpERK with insulin: 0.13
- replicate 2, z-score of dpERK with insulin: 0.38

hbt [DRSC02549]
- replicate 1, z-score of dpERK with insulin: -0.2
- replicate 2, z-score of dpERK with insulin: 0.3

FucTA [DRSC10733]
- replicate 1, z-score of dpERK with insulin: 0.33
- replicate 2, z-score of dpERK with insulin: -0.84

Mur2B [DRSC18545]
- replicate 1, z-score of dpERK with insulin: 0.82
- replicate 2, z-score of dpERK with insulin: -1.78

Mur2B [DRSC18546]
- replicate 1, z-score of dpERK with insulin: 0.07
- replicate 2, z-score of dpERK with insulin: -1.02

CG8360 [DRSC03085]
- replicate 1, z-score of dpERK with insulin: -0.29
- replicate 2, z-score of dpERK with insulin: 0.05

CG11509 (retired record) [DRSC17788]
- replicate 1, z-score of dpERK with insulin: 0.64
- replicate 2, z-score of dpERK with insulin: 1.08

Prosbeta2 [DRSC11257]
- replicate 1, z-score of dpERK with insulin: -1.42
- replicate 2, z-score of dpERK with insulin: -2.87

fne [DRSC20332]
- replicate 1, z-score of dpERK with insulin: -3.3
- replicate 2, z-score of dpERK with insulin: -1.9

fne [DRSC22418]
- replicate 1, z-score of dpERK with insulin: -0.52
- replicate 2, z-score of dpERK with insulin: -0.24

CG1907 [DRSC15399]
- replicate 1, z-score of dpERK with insulin: 0.27
- replicate 2, z-score of dpERK with insulin: 0.01

CG32459 [DRSC11852]
- replicate 1, z-score of dpERK with insulin: -0.08
- replicate 2, z-score of dpERK with insulin: 0.14

CR18275 [DRSC18151]
- replicate 1, z-score of dpERK with insulin: 1.36
- replicate 2, z-score of dpERK with insulin: 0

CG17294 [DRSC02596]
- replicate 1, z-score of dpERK with insulin: 0.07
- replicate 2, z-score of dpERK with insulin: -0.54

Cyp12b2 [DRSC07364]
- replicate 1, z-score of dpERK with insulin: 0.43
- replicate 2, z-score of dpERK with insulin: 0.13
